Our source for the binding values is paper PMC7483467, “A small molecular compound CC1007 induces cross-lineage differentiation by inhibiting HDAC7 expression and HDAC7/MEF2C interaction in BCR-ABL1^− pre-B-ALL” (Cell Death & Disease, 2020).

Sequences of proteins named here, by UniProt entry; tags and fusion partners are left off.
UniProt Q02548: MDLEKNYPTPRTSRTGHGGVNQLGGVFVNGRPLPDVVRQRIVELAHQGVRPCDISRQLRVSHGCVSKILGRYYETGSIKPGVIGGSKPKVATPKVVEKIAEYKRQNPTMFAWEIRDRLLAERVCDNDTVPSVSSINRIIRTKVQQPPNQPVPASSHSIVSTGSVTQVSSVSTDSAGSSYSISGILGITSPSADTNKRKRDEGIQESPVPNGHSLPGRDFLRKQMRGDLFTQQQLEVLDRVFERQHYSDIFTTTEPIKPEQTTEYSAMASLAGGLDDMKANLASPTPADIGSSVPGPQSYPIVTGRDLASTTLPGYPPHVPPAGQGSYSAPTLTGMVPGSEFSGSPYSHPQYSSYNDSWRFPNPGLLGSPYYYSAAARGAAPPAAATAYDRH
UniProt Q06413: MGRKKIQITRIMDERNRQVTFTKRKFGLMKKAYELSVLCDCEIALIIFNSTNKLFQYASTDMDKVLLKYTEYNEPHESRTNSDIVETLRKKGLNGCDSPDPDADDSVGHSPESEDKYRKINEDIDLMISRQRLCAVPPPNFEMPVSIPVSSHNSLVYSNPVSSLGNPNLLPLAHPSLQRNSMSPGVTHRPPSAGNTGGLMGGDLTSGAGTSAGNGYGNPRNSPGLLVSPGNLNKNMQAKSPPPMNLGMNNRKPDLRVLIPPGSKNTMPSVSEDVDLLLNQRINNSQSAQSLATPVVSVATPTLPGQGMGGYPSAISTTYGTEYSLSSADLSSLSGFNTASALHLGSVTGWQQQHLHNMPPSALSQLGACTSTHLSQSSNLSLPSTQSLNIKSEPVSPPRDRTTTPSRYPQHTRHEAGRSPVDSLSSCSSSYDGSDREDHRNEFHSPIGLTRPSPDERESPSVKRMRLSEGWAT
UniProt Q13422: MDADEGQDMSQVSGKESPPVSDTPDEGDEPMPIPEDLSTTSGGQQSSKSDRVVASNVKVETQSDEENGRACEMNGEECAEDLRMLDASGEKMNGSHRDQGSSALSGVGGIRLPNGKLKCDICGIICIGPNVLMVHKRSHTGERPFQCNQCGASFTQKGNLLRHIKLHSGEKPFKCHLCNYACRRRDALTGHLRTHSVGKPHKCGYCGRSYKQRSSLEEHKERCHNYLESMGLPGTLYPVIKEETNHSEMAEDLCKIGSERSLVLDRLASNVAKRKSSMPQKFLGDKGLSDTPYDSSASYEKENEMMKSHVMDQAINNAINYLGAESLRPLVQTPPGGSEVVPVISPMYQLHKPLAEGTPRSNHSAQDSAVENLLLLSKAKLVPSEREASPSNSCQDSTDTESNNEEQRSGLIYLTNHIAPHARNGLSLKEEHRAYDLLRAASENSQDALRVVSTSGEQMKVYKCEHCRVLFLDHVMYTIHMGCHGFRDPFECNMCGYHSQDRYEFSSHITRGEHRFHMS

The target of assay [1] is T1, Histone deacetylase 7 (human (endogenous in BCR-ABL1- pre-B-ALL cells)) (UniProt Q8WUI4).
T1 sequence: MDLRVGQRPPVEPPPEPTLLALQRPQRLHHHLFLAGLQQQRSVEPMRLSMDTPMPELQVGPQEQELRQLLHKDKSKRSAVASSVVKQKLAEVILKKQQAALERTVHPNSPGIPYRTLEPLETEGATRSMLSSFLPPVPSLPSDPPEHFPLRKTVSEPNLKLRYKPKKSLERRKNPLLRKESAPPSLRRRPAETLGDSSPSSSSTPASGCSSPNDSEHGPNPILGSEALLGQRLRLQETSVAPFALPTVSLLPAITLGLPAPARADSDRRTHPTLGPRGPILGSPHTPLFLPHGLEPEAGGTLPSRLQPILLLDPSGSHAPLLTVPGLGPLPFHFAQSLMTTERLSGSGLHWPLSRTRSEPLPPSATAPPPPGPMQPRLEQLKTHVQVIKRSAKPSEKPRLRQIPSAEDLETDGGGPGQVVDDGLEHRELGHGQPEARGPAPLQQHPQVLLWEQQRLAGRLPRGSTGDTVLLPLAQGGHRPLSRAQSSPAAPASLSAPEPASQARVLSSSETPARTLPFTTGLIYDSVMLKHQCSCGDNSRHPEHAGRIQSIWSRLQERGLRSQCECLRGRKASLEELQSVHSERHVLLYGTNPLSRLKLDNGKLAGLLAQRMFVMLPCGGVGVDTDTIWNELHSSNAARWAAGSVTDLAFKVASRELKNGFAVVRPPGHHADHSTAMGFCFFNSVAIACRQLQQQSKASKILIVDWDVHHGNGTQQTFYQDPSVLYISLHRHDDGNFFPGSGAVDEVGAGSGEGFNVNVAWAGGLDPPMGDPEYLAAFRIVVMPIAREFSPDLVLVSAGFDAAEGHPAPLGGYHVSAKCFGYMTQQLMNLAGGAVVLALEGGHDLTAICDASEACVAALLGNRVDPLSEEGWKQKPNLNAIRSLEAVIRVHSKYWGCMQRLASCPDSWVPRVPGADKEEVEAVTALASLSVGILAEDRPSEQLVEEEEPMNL
Put plainly: co-IP; supernatants of lysates of BCR-ABL1- pre-B-ALL cells (cell line and primary patient cells) incubated with anti-HDAC7 or anti-MEF2C antibody 1 h at 4 °C, then protein G/A agarose beads overnight at 4 °C; Western blot. (Immunoblotting shows a protein as a band on a membrane.)

Assay [2] has as its target T1, Histone deacetylase 7 (human (endogenous in BCR-ABL1- pre-B-ALL cells)). Put plainly: co-IP; Nalm-6 cells treated with 1.25 μM CC1007 for 7 days; co-immunoprecipitation on the third, fifth and seventh day; Western blot.

These are yes or no findings as the source states them, for the method shown. Binding seen in cells or lysates may run through a third protein. Some binding calls cover weakened binding; strength is not graded here. Where a sequence is shown, tags or fusion partners need not be part of it.

Consider Pax5 (from UniProt Q02548 1-391), for which the binding result in assay [1] is listed as “no binding”. As for “myocyte enhancer factor-2 (MEF2C) (from UniProt Q06413 1-473)”, the values for the binding result in assay [2] and in assay [1] were “binds weakly” and “binds”, respectively. As to IKAROS (from UniProt Q13422 1-519), in assay [1], the binding result was “no binding”.
